Assay results from the M2OR odorant receptor database.
This is a selection; strong and weak results do not stand in their true shares. The calls were merged from several studies; some rest on single wells. The list shows a part of the results.

Chains of the proteins cited; added tags and fusions are not shown. A change or cut given only in a name is not applied to a line headed by its entry. Chains listed by the source or under a name are the forms on record and can include a tag or linker.
UniProt Q8NGC6, as listed by the source: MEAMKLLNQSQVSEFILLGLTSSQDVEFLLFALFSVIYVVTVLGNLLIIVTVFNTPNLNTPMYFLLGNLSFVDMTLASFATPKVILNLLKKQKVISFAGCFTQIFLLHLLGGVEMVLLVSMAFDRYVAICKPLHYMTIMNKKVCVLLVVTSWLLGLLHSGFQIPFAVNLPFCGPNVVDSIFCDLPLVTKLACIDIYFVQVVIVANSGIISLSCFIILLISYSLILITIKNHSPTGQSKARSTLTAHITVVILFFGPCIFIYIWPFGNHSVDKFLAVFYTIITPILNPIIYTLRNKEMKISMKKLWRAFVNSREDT
UniProt Q96R72: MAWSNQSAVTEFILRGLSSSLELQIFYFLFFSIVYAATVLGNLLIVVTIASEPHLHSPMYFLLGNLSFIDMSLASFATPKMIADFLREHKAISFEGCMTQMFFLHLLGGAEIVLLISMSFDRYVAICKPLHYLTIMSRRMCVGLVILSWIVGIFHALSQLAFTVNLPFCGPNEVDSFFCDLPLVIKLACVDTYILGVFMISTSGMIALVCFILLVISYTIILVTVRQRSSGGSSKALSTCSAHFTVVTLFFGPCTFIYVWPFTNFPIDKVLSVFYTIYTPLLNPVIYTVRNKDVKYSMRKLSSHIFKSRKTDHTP
OR4K2, as listed by the source: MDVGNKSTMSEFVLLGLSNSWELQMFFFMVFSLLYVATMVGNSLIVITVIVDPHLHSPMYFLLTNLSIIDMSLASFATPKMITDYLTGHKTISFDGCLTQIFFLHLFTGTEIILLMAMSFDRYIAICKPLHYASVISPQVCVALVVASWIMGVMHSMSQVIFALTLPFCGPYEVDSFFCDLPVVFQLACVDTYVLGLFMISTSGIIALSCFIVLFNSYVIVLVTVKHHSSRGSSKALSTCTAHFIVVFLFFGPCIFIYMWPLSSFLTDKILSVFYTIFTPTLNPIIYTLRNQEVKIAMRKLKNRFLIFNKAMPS

Tests used:
Settings in all cases: stereoisomer not certain
[1] = tested on: T1, OR4F4
T1 sequence (whole entry): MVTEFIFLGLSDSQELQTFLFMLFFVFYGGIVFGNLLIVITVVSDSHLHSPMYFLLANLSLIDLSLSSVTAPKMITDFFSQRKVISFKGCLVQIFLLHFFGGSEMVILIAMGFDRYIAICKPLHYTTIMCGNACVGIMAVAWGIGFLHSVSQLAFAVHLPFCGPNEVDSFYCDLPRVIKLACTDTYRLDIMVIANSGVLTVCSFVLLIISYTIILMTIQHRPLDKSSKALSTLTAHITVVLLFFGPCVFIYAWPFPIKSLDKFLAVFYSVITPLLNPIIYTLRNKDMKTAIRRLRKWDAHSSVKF
Procedure, shortened: (§1)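 Assay methods differ from source to source, frequently being transient luciferase assays in mammalian cell lines. For each receptor–molecule pair, the label responsive (active) applies when the original authors judged the measured signal statistically different from baseline, and non-responsive (inactive) applies otherwise.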

[2] = target: T2, OR4F6 (Homo sapiens) (UniProt Q8NGB9)
T2 sequence (whole entry): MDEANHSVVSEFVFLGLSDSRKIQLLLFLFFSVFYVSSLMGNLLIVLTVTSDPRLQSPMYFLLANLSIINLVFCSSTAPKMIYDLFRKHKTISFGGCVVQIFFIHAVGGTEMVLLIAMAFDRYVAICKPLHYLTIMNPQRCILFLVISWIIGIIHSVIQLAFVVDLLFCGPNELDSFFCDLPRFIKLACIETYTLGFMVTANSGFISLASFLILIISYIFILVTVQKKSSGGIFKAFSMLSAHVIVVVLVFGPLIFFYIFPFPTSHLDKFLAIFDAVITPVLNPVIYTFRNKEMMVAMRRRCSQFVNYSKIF
Procedure, shortened: as §1

[3] = target: T3, OR4K13 (Homo sapiens) (UniProt Q8NH42)
T3 sequence (whole entry): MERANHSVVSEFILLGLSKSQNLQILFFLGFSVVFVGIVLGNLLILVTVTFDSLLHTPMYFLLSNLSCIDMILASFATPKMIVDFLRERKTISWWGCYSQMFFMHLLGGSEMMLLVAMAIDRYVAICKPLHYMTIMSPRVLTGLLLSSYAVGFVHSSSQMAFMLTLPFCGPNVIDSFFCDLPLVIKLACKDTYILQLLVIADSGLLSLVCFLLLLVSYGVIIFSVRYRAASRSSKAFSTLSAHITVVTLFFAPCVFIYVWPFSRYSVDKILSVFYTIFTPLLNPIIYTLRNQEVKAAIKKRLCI
Procedure, shortened: as §1

[4] = target: T4, OR4K14 (Homo sapiens) (UniProt Q8NGD5)
T4 sequence (whole entry): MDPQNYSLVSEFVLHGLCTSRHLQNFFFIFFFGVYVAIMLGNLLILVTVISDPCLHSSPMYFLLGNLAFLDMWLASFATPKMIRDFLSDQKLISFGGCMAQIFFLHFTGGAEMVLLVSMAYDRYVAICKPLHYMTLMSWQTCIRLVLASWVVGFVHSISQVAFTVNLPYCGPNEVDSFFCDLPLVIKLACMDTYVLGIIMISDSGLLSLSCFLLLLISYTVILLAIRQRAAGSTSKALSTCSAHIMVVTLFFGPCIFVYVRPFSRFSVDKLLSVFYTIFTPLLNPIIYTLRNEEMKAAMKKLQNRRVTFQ
Procedure, shortened: as §1

[5] = tested on: T5, OR4K1
T5 sequence (whole entry): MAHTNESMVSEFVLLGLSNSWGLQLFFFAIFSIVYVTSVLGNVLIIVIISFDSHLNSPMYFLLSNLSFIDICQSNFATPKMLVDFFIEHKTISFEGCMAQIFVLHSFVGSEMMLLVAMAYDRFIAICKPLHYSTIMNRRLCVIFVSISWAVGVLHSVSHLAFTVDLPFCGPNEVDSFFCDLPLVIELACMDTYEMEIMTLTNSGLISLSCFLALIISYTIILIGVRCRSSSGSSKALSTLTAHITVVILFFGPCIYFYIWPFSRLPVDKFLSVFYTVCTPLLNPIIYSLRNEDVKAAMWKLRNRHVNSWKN
Procedure, shortened: as §1

[6] = target: T6, OR4K2 (Homo sapiens) (UniProt Q8NGD2)
T6 sequence (whole entry): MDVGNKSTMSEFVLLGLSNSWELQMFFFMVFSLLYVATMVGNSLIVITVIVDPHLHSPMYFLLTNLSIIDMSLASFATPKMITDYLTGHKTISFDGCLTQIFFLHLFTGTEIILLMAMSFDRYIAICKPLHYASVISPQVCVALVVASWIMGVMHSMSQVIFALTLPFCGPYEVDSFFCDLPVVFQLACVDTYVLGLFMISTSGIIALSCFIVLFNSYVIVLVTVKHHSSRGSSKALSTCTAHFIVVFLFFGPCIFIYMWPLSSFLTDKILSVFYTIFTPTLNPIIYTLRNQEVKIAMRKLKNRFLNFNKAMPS
Procedure, shortened: as §1

[7] = target: OR4K1 (Homo sapiens) (UniProt Q8NGD4)
Procedure, shortened: as §1

[8] = target: OR4K17 (Homo sapiens) (UniProt Q8NGC6)
Procedure, shortened: as §1

[9] = target: OR4K3 (Homo sapiens) (UniProt Q96R72)
Procedure, shortened: as §1

[10] = tested on: OR4K2
Procedure, shortened: as §1

Measured: odorant receptor agonist call

CC(C)C(=O)O
inactive: [1] | [2] | [3] | [4] | [5] | [6]

CCCC(=O)O
inactive: [1] | [2] | [3] | [4] | [5] | [6]

CCCCCC(=O)O
inactive: [1] | [2] | [3] | [4] | [5] | [6]

c1ccc(Oc2ccccc2)cc1
inactive: [1] | [2] | [3] | [4] | [5] | [6]

CCC1(O)C2(C)CCC(C2)C1(C)C (stereo not given)
inactive: [2] | [3] | [4] | [5] | [6]
active: [1]

O=CCc1ccccc1
inactive: [2] | [3] | [4] | [5] | [6]
active: [1]

COC(=O)c1ccccc1O
inactive: [1] | [2] | [3] | [4] | [5] | [6]

C=CC(C)(O)CCC=C(C)C (stereo not given)
inactive: [1] | [2] | [3] | [4] | [5] | [6]

O=C1CCCCCCCCCCCC(=O)OCCO1
inactive: [1] | [2] | [3] | [4] | [5] | [6]

C=CCc1ccc(OC(C)=O)c(OC)c1
inactive: [2] | [3] | [4] | [5] | [6]
active: [1]

CC1CCC(C(C)C)C(O)C1 (stereo not given)
active: [1] | [2]
inactive: [3] | [4] | [5] | [6]

CCCCCCCCOC(C)=O
inactive: [1] | [2] | [3] | [4] | [5] | [6]

CC(C)CCC(=O)O
active: [1]
inactive: [2] | [3] | [4] | [5] | [6]

C=C(C)C1CCC2=CC(=O)CC(C)C2(C)C1 (stereo not given)
active: [1]

CC1COCc2cc3c(cc21)C(C)(C)C(C)C3(C)C (stereo not given)
inactive: [4]
active: [1] | [2] | [3] | [5] | [6]

CC(=O)OC(C)(C)C1CC=C(C)CC1 (stereo not given)
active: [1]
inactive: [2] | [3] | [4] | [5] | [6]

CC(=O)OC1CC2CCC1(C)C2(C)C (stereo not given)
inactive: [2] | [3] | [4] | [5] | [6]
active: [1]

CC12CCC(CC1)C(C)(C)O2
inactive: [1] | [2] | [3] | [4] | [5] | [6]

CC12C=CCC1C1CCC3CC(=O)CCC3(C)C1CC2 (stereo not given)
active: [1]
inactive: [2] | [7] | [3] | [4] | [8] | [5] | [6] | [9]

CC(C)CC(=O)O
inactive: [1] | [2] | [3] | [4] | [5] | [6]

CCCCCCCOC(C)=O
inactive: [1] | [2] | [3] | [4] | [5] | [6]

CCCCCCCC=O
inactive: [1] | [2] | [3] | [4] | [5] | [6]

CCCCCOC(C)=O
active: [1]
inactive: [2] | [3] | [4] | [5] | [6]

CC(C)(O)CCCC1=CCC(C=O)CC1 (stereo not given)
active: [1]

COc1cc(C)ccc1O
active: [1]
inactive: [2] | [3] | [4] | [5] | [6]

By substructure: the entries above with an aryl methoxy group
C=CCc1ccc(OC(C)=O)c(OC)c1
inactive: [2] | [3] | [4] | [5] | [6]
active: [1]

COc1cc(C)ccc1O
active: [1]
inactive: [2] | [3] | [4] | [5] | [6]

Further entries.

CC12C=CCC1C1CCC3=CC(=O)CCC3(C)C1CC2 (stereo not given)
inactive: [1] | [2] | [3] | [4] | [5] | [6]

CCCCO
inactive: [2] | [3] | [4] | [5] | [6]
active: [1]

c1cnccn1
inactive: [1] | [2] | [3] | [4] | [5] | [6]

CCCCCCCCCC=O
inactive: [1] | [2] | [3] | [4] | [5] | [6]

CC1=CCC(C(C)(C)O)CC1 (stereo not given)
active: [1]
inactive: [2] | [3] | [4] | [5] | [6]

CC=Cc1ccc(O)c(OC)c1
inactive: [1] | [2] | [3] | [4] | [5] | [6]

CC(=O)C(C)=O
inactive: [1] | [2] | [3] | [4] | [5] | [6]

CCCCCCCC=CC=O
active: [1]
inactive: [2] | [3] | [4] | [5] | [6]

O=C1CCCCC1
inactive: [2] | [3] | [4] | [5] | [6]

CC1=NC(C)SC1C (stereo not given)
inactive: [2] | [3] | [4] | [5] | [6]

C=CCSCC=C
inactive: [1] | [2] | [3] | [4] | [5] | [6]

CCCCCCCCCCC=O
active: [1]
inactive: [2] | [3] | [4] | [5] | [6]

COc1cc(C=O)ccc1O
inactive: [1] | [2] | [3] | [4] | [5] | [6]

O=C1CCCCCCCCCCCCCCO1
inactive: [1] | [2] | [3] | [4] | [5] | [6]

CC12CCC(C1)C(C)(C)C2=O (stereo not given)
inactive: [1] | [2] | [3] | [4] | [5] | [6]

CC(C)C=O
inactive: [1] | [2] | [3] | [4] | [5] | [6]

CC(C)=CCCC(C)=CC=O
inactive: [1] | [2] | [3] | [4] | [5] | [6]

COc1ccccc1O
inactive: [1] | [2] | [3] | [4] | [5] | [6]

COC(=O)c1ccccc1
inactive: [2] | [3] | [4] | [5] | [6]

CCC=CCCO
inactive: [1] | [2] | [3] | [4] | [5] | [6]

CC(=O)OCC=C(C)CCC=C(C)C
active: [1]
inactive: [2] | [3] | [4] | [5] | [6]

CCCCCCOC(=O)CCC
inactive: [1] | [2] | [3] | [4] | [5] | [6]

CCCCCC(C)=O
inactive: [2] | [3] | [4] | [5] | [6] | [10]

CC(C)(C)c1ccc(CCC=O)cc1
active: [1]
inactive: [2] | [3] | [4] | [5] | [6]

C=CCc1ccc(OC)c(OC)c1
inactive: [1] | [2] | [3] | [4] | [5] | [6]

CC(=O)c1ccccc1
inactive: [2] | [3] | [4] | [5] | [6]
